Library screening results

Sequences of proteins named here, by UniProt entry; tags and fusion partners are left off.
UniProt E9BF75, entry or part of it: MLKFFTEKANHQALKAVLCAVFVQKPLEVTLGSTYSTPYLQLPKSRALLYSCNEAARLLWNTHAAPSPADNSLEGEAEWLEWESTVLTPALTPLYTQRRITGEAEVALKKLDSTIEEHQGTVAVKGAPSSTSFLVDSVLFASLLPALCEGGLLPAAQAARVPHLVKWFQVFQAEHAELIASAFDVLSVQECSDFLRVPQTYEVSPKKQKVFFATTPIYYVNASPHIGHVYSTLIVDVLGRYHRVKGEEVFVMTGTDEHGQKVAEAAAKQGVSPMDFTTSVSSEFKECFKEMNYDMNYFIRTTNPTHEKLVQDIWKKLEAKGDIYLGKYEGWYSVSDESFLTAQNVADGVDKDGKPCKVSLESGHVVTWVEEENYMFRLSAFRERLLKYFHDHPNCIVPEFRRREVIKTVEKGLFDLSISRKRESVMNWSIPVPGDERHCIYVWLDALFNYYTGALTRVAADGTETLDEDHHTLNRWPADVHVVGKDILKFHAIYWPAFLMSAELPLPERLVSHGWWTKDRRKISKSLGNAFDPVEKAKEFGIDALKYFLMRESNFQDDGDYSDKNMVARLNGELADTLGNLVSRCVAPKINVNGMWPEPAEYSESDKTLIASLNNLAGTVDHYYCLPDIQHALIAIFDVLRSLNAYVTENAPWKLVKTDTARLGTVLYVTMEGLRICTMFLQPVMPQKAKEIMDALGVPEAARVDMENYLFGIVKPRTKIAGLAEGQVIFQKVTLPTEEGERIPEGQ

All values are in %.
The record does not define 0% and 100%; most values in the screen are far below 50% and negative numbers occur (in some assays of this library far below -100).
This is an unselected part of the compounds tested.

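Methionyl-tRNA synthetase (putative), Leishmania donovani (UniProt E9BF75). Primary screen of methionyl-tRNA synthetase; the read-out is not stated. The test concentration is not given. Values are per cent inhibition. Size under these conditions: about 68,000 compounds, about 24 of them at 50% or above in at least one test.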

SMILES,Inhibition
COc1cccc(C(=O)NCC(c2cccn2C)N2CCCC2)c1OC (configuration not stated),6.402
Cc1oc(-c2ccsc2)nc1CNC(C)Cn1cccn1 (configuration not stated),10.05
CCn1cc(CNCc2ccc(C(=O)OC)cc2)c(C)n1,7.297
NC1CCc2c(ccc(=O)n2Cc2ccncc2)C1 (configuration not stated),10
Cn1cccc1C(=O)COc1ccc(S(N)(=O)=O)cc1,7.736
C=C(C)CN1CCC(NC(=O)NCCc2ccccc2OC)CC1,6.522
CC(=O)N(C)Cc1ccccc1NC(=O)c1cnn(C)c1C,10
O=C(NCCNc1ncccn1)NCCc1c(F)cccc1F,8.791
CCCN1CCC(c2nc3ccc(-c4cccc(F)c4)cn3n2)CC1,12.9
Cn1nc(CNC(=O)CC#N)c2c1CN(C(N)=O)CC2,8.711
CCOCCN1CCN(CCC(=O)N2CCCCC2)CC1C (configuration not stated),6.643
CCC(=O)N(CC)C(c1cccnc1)c1ccc2c(c1)CCO2 (configuration not stated),7.092
CSCC(=O)N1CCc2[nH]nc(-c3ccc4c(c3)OCO4)c2C1,7.904
COc1c(CNCc2ccccc2Cn2cccn2)c(C)nn1C,4.396
Cc1ccc2occ(CN3CCN(c4ncccn4)CC3)c(=O)c2c1,5.74
CC(C)N(C(=O)Cn1nc2n(c1=O)CCCCC2)C1CCC1,15.92
CCc1cc(N2CCN(c3cnccn3)CC2)n2nc(C)c(C)c2n1,5.455
Cc1ccc(N2CCN(C(=O)COc3nccc(C)n3)CC2)nn1,10.34
CCOC(C)c1nc(CN2CCC(CNC(C)=O)CC2)cs1 (configuration not stated),3.986
NC(=O)COc1ccc(CN2CCC3(CC2)[C@H](O)C[C@@H]3O)cc1Cl,0
COc1ccccc1COCC(O)CN1CC(n2cccn2)C1 (configuration not stated),21.86
Cc1cc(C2CCCN2CC(=O)N(CCC#N)c2ccccc2F)on1 (configuration not stated),13.02
COc1ccc(-c2noc([C@@H](C)NC(=O)NC(C)(C)C)c2C(=O)O)cc1,3.051
CN(C)C(=O)[C@@H]1C[C@@H]2CCN(Cc3ccncc3)C[C@@H]2O1,-8.497
COCCC(=O)N1CCn2c(COCC3CC3)cnc2C1C (configuration not stated),7.296
Cc1noc2ncc(C(=O)N3CCCC(n4cccn4)C3)cc12 (configuration not stated),11.34
CCc1ccccc1OCCN(C)C(=O)CN1CCCC1,19.51
Cn1cc(CN2CCCC3(CCN(C(=O)c4ccccn4)C3)C2)cn1 (configuration not stated),14.92
CN(Cc1nc2ccccc2n1C)C(=O)CCc1cscn1,3.107
Cc1nnc2n1CCN(CCS(=O)(=O)c1ccc(Cl)cc1)C2,10.84
Cn1nc(C2CCN(C(=O)CCN3CCOCC3)CC2)c2cccnc21,2.083
c1cncc(-c2noc(CN3CCCCC3Cn3cccn3)n2)c1 (configuration not stated),17.05
CCc1cc(N(C)Cc2ncc[nH]2)nc(N2CCOCC2)n1,13.94
Cc1ccsc1CN(CCCN(C)C)Cc1ccccn1,8.706
NC(=O)N1CCC(C(=O)NCc2nncn2-c2ccccc2)CC1,21.78
O=S(=O)(c1ccccc1)N1CCN(CCn2ccnc2)CC1,13.3
CC1CN(Cc2ccccc2)CCCN1CCS(C)(=O)=O (configuration not stated),4.261
Cc1ccc(NC(=O)Nc2c[nH]c(=O)[nH]c2=O)c(C)c1,3.876
CNc1cc(C)nc(-c2cc(NC3CCNCC3)nc3[nH]ccc23)n1,19.63
CC1(C)CN(CC(F)(F)F)CCN1CC(=O)N1CCCCC1,7.56
NC(=O)Cc1csc(NC(=O)C2CSCCC(=O)N2)n1 (configuration not stated),11.51
Cc1ccc(CC(=O)N2CCN(CC(O)c3ccccc3)CC2)cn1 (configuration not stated),14.29
O=C(NC1CCS(=O)(=O)C1)c1sccc1-c1ccc(F)cc1 (configuration not stated),8.55
CCOc1ccc(CNC(C)c2ccc3[nH]c(=O)[nH]c3c2)cc1 (configuration not stated),11.11
O=C1NCCCC12CCN(S(=O)(=O)N1CCOCC1)C2 (configuration not stated),3.922
CCc1ccsc1C(=O)N1CCCC(c2noc(C)n2)C1 (configuration not stated),5.978
Cn1ncc(NC(=O)Cn2ccc(-c3cccc(F)c3)n2)n1,4.811
CS(=O)(=O)N1C[C@@H]2CC[C@H](C1)N(CCC(=O)NCc1ccco1)C2,6.832
Cc1cc(C(=O)NCC2Cn3nnc(C)c3CO2)no1 (configuration not stated),-1.613
CC(=O)N1CCN(C(=O)c2cnc(OC(C)C)c(Cl)c2)CC1,18.16
Cc1ccc(CN2CCC(c3cnccn3)CC2)s1,10.87
COc1ncc(NCc2cccc(C#N)c2)cc1C(N)=O,1.397
O=C(NCC1CCOC1)c1cc(-c2cccc(Cl)c2)[nH]n1 (configuration not stated),8.815
Cc1ccccc1C(C#N)NC(=O)CCCOc1cccnc1 (configuration not stated),22.06
CC(O)CN1CCC(CN(C)Cc2ccc(C#N)cc2F)CC1 (configuration not stated),5.013
Cc1cc(N2CCOC(C(F)(F)F)C2)nc(-c2ccccc2)n1 (configuration not stated),11.68
CS(=O)(=O)CCCNC1(c2cccc(F)c2)CC1,7.754
N#CC1(C(=O)N2CCN(Cc3ccon3)CC2)CCC1,5.164
CCOC1CCCN(C(=O)NCCc2ccn(-c3ccccc3)n2)C1 (configuration not stated),2.083
COc1ncccc1-c1nc(-c2ccccn2)nn1C1CCN(C)CC1,1.489
CCNCCC(Cc1ccccc1)c1ccco1 (configuration not stated),16.17
Cn1ccc2ccc(C(=O)Nc3nc[nH]n3)cc21,8.746
COCc1ccccc1C(=O)NCC(O)c1ccc(Cl)s1 (configuration not stated),13.9
COc1ccc2c(CN3CCCN(Cc4ccncc4)CC3)n[nH]c2c1,20.5
Cc1cnn(CCNCC(O)c2ccc(F)c(F)c2)c1 (configuration not stated),-1.809
CC(C)c1nnc(NC(=O)NC2CCOc3ccccc32)s1 (configuration not stated),6.383
CCc1noc(C(C)N(C)Cc2cc(Br)ccc2OC)n1 (configuration not stated),9.278
Cc1csc(C2(NCc3nc(-c4ccco4)no3)CCCC2)n1,17.96
CN1CCN2CCN(Cc3cc(=O)n4c5c(cccc35)CCC4)CC2C1 (configuration not stated),11.68
CN1CCc2[nH]cnc2C12CCN(C(=O)c1noc3c1CCCC3)CC2,8.193
CN(CCCc1cnn(C)c1)Cc1cc2n(n1)CCCNC2,11.43
COc1cccc(-c2noc(C3CCN(Cc4ccccc4C)C3)n2)c1 (configuration not stated),6.553
OCc1cccc(OCc2ccon2)c1,4.202

For reference, 9 entries once more:

- Cc1ccc(N2CCN(C(=O)COc3nccc(C)n3)CC2)nn1 : 10.34%
- CC(=O)N1CCN(C(=O)c2cnc(OC(C)C)c(Cl)c2)CC1 : 18.16%
- N#CC1(C(=O)N2CCN(Cc3ccon3)CC2)CCC1 : 5.164%
- COc1ccc2c(CN3CCCN(Cc4ccncc4)CC3)n[nH]c2c1 : 20.5%
- CCc1ccccc1OCCN(C)C(=O)CN1CCCC1 : 19.51%
- CN(Cc1nc2ccccc2n1C)C(=O)CCc1cscn1 : 3.107%
- CCc1cc(N(C)Cc2ncc[nH]2)nc(N2CCOCC2)n1 : 13.94%
- CC1CN(Cc2ccccc2)CCCN1CCS(C)(=O)=O (configuration not stated) : 4.261%
- CCc1ccsc1C(=O)N1CCCC(c2noc(C)n2)C1 (configuration not stated) : 5.978%

The values are deposited in ChEMBL (CHEMBL3988442, “University of Dundee, Small-Polar-MMV Screening Library” (2021)).